For part of its entries the source gives two or more results. Only these are listed. There may be further records. Values given together seem to repeat one measurement; one of them may be the mean.
How the values were obtained:
[1] = system: Gαq protein in HEK293T cells (pcDNA3.1); assay: Gαq protein activation BRET2 assay in control HEK293T cells without receptor (pcDNA3.1 / 0 μg); details: MRS2179 10 μM, 1 min, 0 µg receptor-encoding plasmid
Human P2Y1-R = Human P2Y1-R (Homo sapiens, UniProt P47900); assay: Gαq protein activation BRET2 assay (Gαq-RLuc8/GFP2-Gγ2/Gβ1) in HEK293T cells expressing P2Y1-R; format: cell-based; set-up: unit not given here; details: 1 min

The chains behind the UniProt entries cited, without tags or fusion partners.
UniProt P47900, whole entry: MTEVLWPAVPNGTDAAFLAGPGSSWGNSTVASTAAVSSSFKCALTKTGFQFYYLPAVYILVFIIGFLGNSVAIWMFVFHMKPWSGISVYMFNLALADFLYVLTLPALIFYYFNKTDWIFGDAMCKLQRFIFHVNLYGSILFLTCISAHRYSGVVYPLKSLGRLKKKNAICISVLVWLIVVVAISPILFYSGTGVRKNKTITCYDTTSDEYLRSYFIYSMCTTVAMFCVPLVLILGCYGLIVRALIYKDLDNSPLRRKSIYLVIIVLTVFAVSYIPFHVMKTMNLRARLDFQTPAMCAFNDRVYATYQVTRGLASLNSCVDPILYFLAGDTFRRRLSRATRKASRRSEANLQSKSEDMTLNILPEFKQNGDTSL

CNc1ncnc2c1ncn2[C@H]1C[C@H](OP(=O)(O)O)[C@@H](COP(=O)(O)O)O1 [MRS2179]
MRS2179-modulated BRET [1]: 0.02671, 0.02912, -0.002311, 0.03124, 0.06069, 0.02735
MRS2179-modulated BRET (Human P2Y1-R; MRS2179 10 μM, 0.001 µg P2Y1-R plasmid): 0.02407, -0.01052, -0.0362, 0.04076, 0.02492, 0.02772, 0.04778
MRS2179-modulated BRET (Human P2Y1-R; MRS2179 10 μM, 0.1 µg P2Y1-R plasmid): 0.03908, 0.03078, 0.07322, 0.004927, 0.02817, 0.0815, 0.152
MRS2179-modulated BRET (Human P2Y1-R; MRS2179 10 μM, 1 µg P2Y1-R plasmid): 0.1498, 0.08739, 0.1024, 0.08426, 0.2275, 0.3378
MRS2179-modulated BRET (Human P2Y1-R; MRS2179 10 μM, 4 µg P2Y1-R plasmid): 0.0811, 0.06722, 0.06675, 0.05235, 0.1593, 0.2256
MRS2179-modulated BRET (Human P2Y1-R; [MRS2179] 1.00E-05 M): 0.03597, 0.07442, 0.06488, 0.0387, 0.02478
MRS2179-modulated BRET (Human P2Y1-R; [MRS2179] 1.00E-06 M): -0.03733, 0.01557, 0.01473, 0.004022, -0.0107
MRS2179-modulated BRET (Human P2Y1-R; [MRS2179] 1.00E-07 M): -0.03464, 0.03108, 0.01306, -0.001486, -0.00562
MRS2179-modulated BRET (Human P2Y1-R; [MRS2179] 1.00E-08 M): -0.04585, -0.02666, 0.02532, -0.02408, -0.009435
MRS2179-modulated BRET (Human P2Y1-R; [MRS2179] 1.00E-09 M): -0.02882, -0.03007, -0.01779, -0.02111, 0.00341
MRS2179-modulated BRET (Human P2Y1-R; [MRS2179] 1.00E-10 M): -0.04142, -0.05181, 0.008003, -0.005473, -0.006573
MRS2179-modulated BRET (Human P2Y1-R; [MRS2179] 5.00E-06 M): 0.02126, 0.0223, 0.04876, 0.0381, 0.0265

Source: publication PMC9890698 (BMC Biology, 2023)
